Test results as given in PubChem BioAssay AID248 (DTP/NCI, 2004).
The list shows only some results of the screen, not a fair sample: its compounds were picked by chemical class. Not every dose and run of a compound is shown. T/C is the treated group as % of the vehicle group. Some doses have a count of surviving animals in place of a T/C: the source files T/C as zero there, which appears to mark a toxic dose or a test without result, not a measured value. Some doses without a T/C left all or most animals alive at the check, yet need not have been tolerated: the source hardly ever lists a survival T/C far under the control, and the zero likely stands for such cases as well. Survivors were counted at the toxicity check, usually on the fifth day, unless a day is given; later deaths do not show. Schedules are NCI's codes, read here as Q, the interval in days (D) or hours (H), X, the number of doses. Some schedules carry Z or #; the key to these is not given. For survival time, the PubChem record calls one and a half times the control and up active, and a quarter to a half above the control has no call in these data; cut-offs in other NCI protocols can differ. Marks such as (2×) give the number of equal values in this list. Some T/C values carry the count of animals alive at the toxicity check (mostly the fifth day); without a count or a note in brackets, all were alive then. Some entries were tested several times; their values stand side by side, smallest first.

System: L1210 leukemia ip in BDF1 mice, survival T/C
Assay: NCI In Vivo Anticancer Drug Screen. Data for tumor model L1210 Leukemia (intraperitoneal) in B6D2F1 (BDF1) mice
Conditions: T/C endpoint: mean survival time, higher T/C = longer survival

`OC(CNCCCl)C(O)C(O)C(O)CNCCCl` (configuration not stated) was tested, and the T/C (dose: 23.0 mg/kg/injection, schedule: Q07DX Z (ip), vehicle: saline) was 152 % of control, the T/C (dose: 24.0 mg/kg/injection, schedule: Q03HX024 (ip), vehicle: saline) was 119 % of control and the T/C (dose: 25.0 mg/kg/injection, schedule: Q01DX001 (ip), vehicle: saline) was 112 % of control. The T/C (dose: 25.0 mg/kg/injection, schedule: Q01DX002 (ip), vehicle: saline) was 130 and 132 % of control, the survivor count (dose: 25.0 mg/kg/injection, schedule: Q01DX Z (ip), vehicle: saline) was 6 of 6 and the T/C (dose: 25.5 mg/kg/injection, schedule: Q01DX Z (ip), vehicle: carboxymethylcellulose (CMC)) was 137 % of control. For the same compound, the T/C (dose: 30.0 mg/kg/injection, schedule: Q01DX009 (ip), vehicle: saline) was 126 % of control, the T/C (dose: 30.0 mg/kg/injection, schedule: Q03DX Z (ip), vehicle: saline) was 168 % of control and the T/C (dose: 30.0 mg/kg/injection, schedule: Q#A X Z (ip), vehicle: saline) was 98 % of control. For the same compound, the T/C (dose: 32.0 mg/kg/injection, schedule: Q01DX Z (ip), vehicle: saline) was 141 and 155 % of control, the T/C (dose: 34.0 mg/kg/injection, schedule: Q01DX Z (ip), vehicle: carboxymethylcellulose (CMC)) was 122 % of control and the T/C (dose: 35.0 mg/kg/injection, schedule: Q01DX001 (ip), vehicle: saline) was 121, 127, 147, 155 % of control. For the same compound, the T/C (dose: 35.0 mg/kg/injection, schedule: Q01DX002 (ip), vehicle: saline) was 132 % of control (2×), the T/C (dose: 35.0 mg/kg/injection, schedule: Q07DX Z (ip), vehicle: saline) was 133 and 148 % of control and the T/C (dose: 36.0 mg/kg/injection, schedule: Q03HX024 (ip), vehicle: saline) was 130 % of control. The T/C (dose: 40.0 mg/kg/injection, schedule: Q01DX001 (ip), vehicle: saline) was 107, 140, 144 % of control, the T/C (dose: 40.0 mg/kg/injection, schedule: Q01DX001 (oral), vehicle: saline) was 100 % of control and the T/C (dose: 40.0 mg/kg/injection, schedule: Q01DX006 (iv), vehicle: saline) was 103 and 112 % of control. For the same compound, the T/C (dose: 40.0 mg/kg/injection, schedule: Q01DX009 (ip), vehicle: saline) was 123 % of control, the T/C (dose: 40.0 mg/kg/injection, schedule: Q01DX009 (oral), vehicle: saline) was 101 % of control and the T/C (dose: 40.0 mg/kg/injection, schedule: Q01DX009 (sc), vehicle: saline) was 133 % of control. For the same compound, the T/C (dose: 40.0 mg/kg/injection, schedule: Q01DX Z (im), vehicle: saline) was 108 and 116 % of control, the T/C (dose: 40.0 mg/kg/injection, schedule: Q01DX Z (ip), vehicle: saline) was 102 and 105 % of control and the T/C (dose: 40.0 mg/kg/injection, schedule: Q01DX Z (oral), vehicle: saline) was 101 and 116 % of control. The T/C (dose: 40.0 mg/kg/injection, schedule: Q01DX Z (sc), vehicle: saline) was 102 and 113 % of control, the T/C (dose: 40.0 mg/kg/injection, schedule: Q## X002 (ip), vehicle: saline) was 148 % of control and the T/C (dose: 40.0 mg/kg/injection, schedule: Q## X003 (ip), vehicle: saline) was 158 % of control. The T/C (dose: 40.0 mg/kg/injection, schedule: Q## X008 (ip), vehicle: saline) was 135 % of control, the T/C (dose: 40.0 mg/kg/injection, schedule: Q## X016 (ip), vehicle: saline) was 119 % of control and the T/C (dose: 40.0 mg/kg/injection, schedule: Q## X024 (ip), vehicle: saline) was 148 % of control. For the same compound, the T/C (dose: 42.5 mg/kg/injection, schedule: Q01DX Z (ip), vehicle: carboxymethylcellulose (CMC)) was 113 % of control, the survivor count (dose: 45.0 mg/kg/injection, schedule: Q#A X Z (ip), vehicle: saline) was 6 of 6 and the T/C (dose: 48.0 mg/kg/injection, schedule: Q01DX Z (ip), vehicle: saline) was 103 % of control. The T/C (dose: 50.0 mg/kg/injection, schedule: Q01DX002 (ip), vehicle: saline) was 131 and 135 % of control [5 of 6 alive], the survivor count (dose: 50.0 mg/kg/injection, schedule: Q01DX Z (ip), vehicle: saline) was 6 of 6 and the T/C (dose: 54.0 mg/kg/injection, schedule: Q01DX001 (ip), vehicle: saline) was 131 % of control. For the same compound, the T/C (dose: 54.0 mg/kg/injection, schedule: Q03HX008 (ip), vehicle: saline) was 122 % of control, the T/C (dose: 54.0 mg/kg/injection, schedule: Q03HX024 (ip), vehicle: saline) was 130 % of control and the T/C (dose: 54.0 mg/kg/injection, schedule: Q04DX003 (ip), vehicle: saline) was 154 % of control. For the same compound, the T/C (dose: 55.0 mg/kg/injection, schedule: Q01DX001 (ip), vehicle: saline) was 135 % of control, the survivor count (dose: 60.0 mg/kg/injection, schedule: Q01DX006 (iv), vehicle: saline) was 6 of 6 and the survivor count (dose: 60.0 mg/kg/injection, schedule: Q01DX Z (im), vehicle: saline) was 6 of 6. The T/C (dose: 60.0 mg/kg/injection, schedule: Q01DX Z (ip), vehicle: saline) was 88 % of control, the T/C (dose: 60.0 mg/kg/injection, schedule: Q01DX Z (sc), vehicle: saline) was 93 % of control and the T/C (dose: 60.0 mg/kg/injection, schedule: Q03DX Z (ip), vehicle: saline) was 131 % of control. For the same compound, the T/C (dose: 64.0 mg/kg/injection, schedule: Q01DX Z (ip), vehicle: saline) was 88 % of control, the survivor count (dose: 67.5 mg/kg/injection, schedule: Q#A X Z (ip), vehicle: saline) was 4 of 6 and the T/C (dose: 70.0 mg/kg/injection, schedule: Q01DX001 (ip), vehicle: saline) was 121 and 130 % of control [5 of 6 alive]. The T/C (dose: 70.0 mg/kg/injection, schedule: Q07DX Z (ip), vehicle: saline) was 163 % of control, the T/C (dose: 80.0 mg/kg/injection, schedule: Q01DX001 (ip), vehicle: saline, evaluated on day 30) was 151, 157, 164 % of control and the T/C (dose: 80.0 mg/kg/injection, schedule: Q01DX001 (ip), vehicle: saline, evaluated on day 60) was 138 % of control. The T/C (dose: 80.0 mg/kg/injection, schedule: Q01DX001 (ip), vehicle: saline, run until all animals had died) was 135 % of control.
